Reference: PubChem BioAssay AID1259307 (Sanger Institute, 2017)
The whole screen tested 794 reagents; this is a part drawn at random. 15 of all reagents (1.9%) were called active. 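Calls reflect lethality without any drug; synergy scores did not enter the calls.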 A number with no mark means an inactive call. Viability is capped at 1. The record does not give: the amount of reagent, the time to read-out.

- Aim: 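siRNA kinome screen seeking kinases whose loss harms SW620 cells alone or with drugs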 (primary screen)
- Cells: SW620 colorectal cancer cells
- Reagent: siRNA pool against human genes
- Challenge: anchor drugs BYL719 at 1 µM, cetuximab at 5 µg/ml or trametinib at 10 nM, each beside a DMSO vehicle arm
- Read-out: 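Cell viability in each well relative to non-targeting controls, averaged over replicates and turned into a robust z-score; synergy with BYL719 (1 µM), cetuximab (5 µg/ml), trametinib (10 nM) versus DMSO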
- Scale: viability robust z-score, no drug and viability vs control, no drug: higher = more viable cells; synergy score with BYL719 and synergy score with cetuximab and synergy score with trametinib: higher = stronger synthetic lethality with the drug
- Call rule: 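Essential when the viability robust z-score without drug is under -3; synergy scores are ignored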
- Meaning of the calls: active = essential (lethal alone); inactive = no change alone

gene	viability robust z-score, no drug	viability vs control, no drug	synergy score with BYL719	synergy score with cetuximab	synergy score with trametinib
AMHR2	0.736	1	0.0686	0.0385	0.135
PRPS2	0.736	1	-0.0687	0	-0.0117
STAG2	-0.0647	0.926	-0.139	-0.0739	-0.152
PAK3	-0.203	0.913	-0.00451	0.0276	0.0869
HK1	0.736	1	-0.0737	0	-0.0469
PAPSS2	0.736	1	0.0211	0.0174	0.0614
CDKN2B	-0.356	0.899	-0.1	-0.101	-0.0967
CDK14	0.736	1	-0.00301	0.018	-0.000275
NADK	0.736	1	0.00906	0	0.0559
PACSIN1	0.736	1	0.0308	0	0.0723
RUNX1	0.232	0.954	-0.00354	-0.0465	0.0243
CDK20	-0.4	0.895	0.0118	0.0398	-0.0121
CASK	0.581	0.986	0.0255	0.0673	0.000329
CDK16	0.235	0.954	-0.023	-0.0314	-0.00405
UCK1	0.736	1	-0.0919	0	-0.126
ROR1	0.425	0.971	-0.0535	0.0076	-0.054
PIP5K1A	-1.76	0.769	-0.0714	-0.0816	-0.00309
CIT	-1.54	0.79	0.0322	0.0222	0.121
TPD52L3	0.736	1	-0.0405	0	0.0357
CKS1B	-1.26	0.815	-0.0845	-0.18	-0.0382
RNASEL	-0.0146	0.931	-0.0259	-0.0693	-0.0481
FGFR3	0.0894	0.94	-0.035	-0.0179	0.0969
PDGFRL	-1.63	0.782	-0.142	-0.0181	-0.0616

Next part (6 carried over from the part before).
gene	viability robust z-score, no drug	viability vs control, no drug	synergy score with BYL719	synergy score with cetuximab	synergy score with trametinib
CIT	-1.54	0.79	0.0322	0.0222	0.121
TPD52L3	0.736	1	-0.0405	0	0.0357
CKS1B	-1.26	0.815	-0.0845	-0.18	-0.0382
RNASEL	-0.0146	0.931	-0.0259	-0.0693	-0.0481
FGFR3	0.0894	0.94	-0.035	-0.0179	0.0969
PDGFRL	-1.63	0.782	-0.142	-0.0181	-0.0616
SMG1	0.0525	0.937	-0.0123	-0.0631	-0.0385
GCK	-0.265	0.908	-0.0423	-0.0924	-0.0757
CDKN1A	0.736	1	-0.0368	0.0222	0.0951
CKB	0.209	0.951	-0.109	-0.0486	-0.0777
PXK	0.373	0.967	0.0441	-0.00656	-0.0129
CSNK2A1	0.736	1	-0.0671	0	-0.0728
MAP4K1	-1.76	0.769	-0.0189	-0.104	0.0296
FCSK	0.736	1	-0.0409	0	-0.0618
LIMK1	0.736	1	-0.0919	0	-0.13
RFK	0.736	1	-0.0919	0	0.0693
PDK3	0.736	1	0.0291	0.0936	0.0238
ALDH18A1	0.736	1	0.0263	0	-0.0358
BTK	0.158	0.947	-0.0746	0.0189	0.00659
ABL1	0.736	1	0.0137	0.048	-0.00408
ITPKB	0.518	0.98	0.00393	0.0185	-0.0581
CDKL4	0.736	1	0.000814	0	0.0143
CRKL	0.736	1	-0.0466	0	0.014
STYK1	0.736	1	0.0987	0.0426	0.0627
FLT3	0.0278	0.935	0.0144	0.0152	0.0479
MAP4K2	-1.82	0.764	-0.138	-0.155	-0.0962
MAP2K7	0.554	0.983	-0.0374	-0.0152	0.1
MAP3K21	0.736	1	-0.0278	0.0863	0.0585
NEK9	0.736	1	0.0101	0.00995	0.0276
IP6K2	0.209	0.951	-0.045	0.0557	-0.0117
TP53	0.736	1	0.111	0.0169	0.136
LMTK1	-1.69	0.776	-0.105	-0.224	-0.252
EFNA4	0.736	1	-0.0919	0	0.0455
CDK12	0.335	0.963	0.0047	-0.037	-0.0139
CMPK1	0.736	1	0.0528	0	0.0751
CDK17	-2.4	0.711	-0.0292	0.017	-0.0519
GOLGA5	0.0958	0.941	-0.065	-0.00793	0.0174
CDK5R2	-0.347	0.9	-0.0156	-0.1	-0.168
EPHA5	0.736	1	-0.0907	0.0638	0.0526
NME6	-0.927	0.847	-0.0396	0.0208	0.0295
SIK3	-1.77	0.769	-0.25	-0.231	-0.186
NEK6	0.736	1	-0.0546	0	-0.0375
PAK1	-1.19	0.823	0.0285	-0.117	0.028
CHD9	0.736	1	-0.0919	0.0631	-0.0752
MAP4K4	0.736	1	-0.0919	0	0.0639
FOXP1	-2.78	0.675	-0.0922	-0.115	-0.0686
